Results deposited as PubChem BioAssay AID504786 (Drosophila RNAi Screening Center, 2011).
Screen: 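Knock-downs reducing HIF reporter induction by the iron chelator DFO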 (primary screen). Cells: Drosophila S2 cells with a stable HIF luciferase reporter. Knock-down reagent: long dsRNA against Drosophila genes, about 0.2 µg dsRNA per well of a 384-well plate. Time to read-out: three days of knock-down, then 20 h of DFO before reading. Conditions: desferrioxamine (DFO) at 100 µM, an iron chelator that mimics hypoxia, for 20 h. Read-out: 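HIF reporter luminescence in cells given 100 µM DFO for 20 h, using the mouse ldh-a hypoxia-response element, scored as per-plate z-scores; higher means greater loss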. Scale: z-score: higher = stronger loss of HIF reporter signal.
The screen tested about 21,000 reagents; below is an unselected part of those that have a named target and a result. 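Primary screen; positive scores mean lost reporter signal, so the sign may be inverted from the usual convention.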 Names joined by + are all predicted targets of the reagent.

no.	predicted target	PubChem SID	z-score, replicate 1	z-score, replicate 2	z-score, replicate 3	z-score, replicate 4
1	cpa	SID104183872	-0.1	0.5		
2	Targ3	SID104191263	0.2	-0.3		
3	Kebab	SID104180619	-0.2	-0.4		
4	mRpL42	SID104186027	0.7	1		
5	CG12880	SID104194360	-0.2	2.6		
6	CG10311	SID104194020	-0.3	-0.1		
7	CG15743	SID104199501	-0.1	0		
8	CG13793	SID104182089	-0.3	-0.2		
9	CG9147	SID104182939	-0.2	-0.3		
10	CG18766	SID104195728	-0.3	-0.4		
11	Hsp60D	SID104182335	-0.4	-0.5		
12	mRpL13	SID104181868	1.1	0.9		
13	CG9368	SID104190859	-0.3	-0.6		
14	CG15646	SID104199474	-0.4	-0.3		
15	l(3)73Ah	SID104191151	0	-0.1		
16	His2B:CG33870 + His2B:CG33868 + His2B:CG33882 + 21 more	SID104183549	2.7	3.3		
17	ort	SID104196032	-0.3	0.3		
18	Eogt	SID104180519	-0.4	-0.2		
19	CG18324	SID104186513	-0.4	-0.5		
20	Takl1	SID104193235	-0.2	0		
21	RhoGAPp190	SID104199889	-0.4	0.1		
22	RhoGAPp190	SID104199891	-0.3	-0.2		

5 of these entries, reformatted.
| predicted target | PubChem SID | z-score, replicate 1 | z-score, replicate 2 | z-score, replicate 3 | z-score, replicate 4 |
| --- | --- | --- | --- | --- | --- |
| CG15743 | SID104199501 | -0.1 | 0 | – | – |
| CG13793 | SID104182089 | -0.3 | -0.2 | – | – |
| CG9147 | SID104182939 | -0.2 | -0.3 | – | – |
| CG18766 | SID104195728 | -0.3 | -0.4 | – | – |
| Hsp60D | SID104182335 | -0.4 | -0.5 | – | – |

Additional results:
no.	predicted target	PubChem SID	z-score, replicate 1	z-score, replicate 2	z-score, replicate 3	z-score, replicate 4
23	AANATL6	SID104186565	-0.2	-0.3		
24	Vha16-4 + CG15614	SID104187113	-0.3	-0.3		
25	zetaTry	SID104187512	-0.4	-0.6		
26	CG42615	SID104184913	-0.3	0.1		
27	Prps	SID104188786	1.4	1.7		
28	Prps	SID104190499	0.5	1.1		
29	Prps	SID104190500	0.2	0.6		
30	Tomosyn	SID104199157	-0.2	-0.7		
31	Tomosyn	SID104199484	-0.1	-0.3	1	-0.3
32	Tomosyn	SID104199574	-0.3	0.1		
33	Tomosyn	SID104199634	-0.2	-0.3	0.7	-0.2
34	CG9953	SID104190898	-0.3	-0.4		
